Measurements reported in article PMC5087487, “A Graphene Oxide-Based Fluorescent Method for the Detection of Human Chorionic Gonadotropin” (Sensors (Basel, Switzerland), 2016).
Results are given in words; binding and its absence hold for the method and conditions named.

Chains of the proteins cited; added tags and fusions are not shown. Lines headed by an entry give the natural chain unless they say otherwise; changes in a name come on top. Residues count along the entry.
UniProt P02769, residues 25-607: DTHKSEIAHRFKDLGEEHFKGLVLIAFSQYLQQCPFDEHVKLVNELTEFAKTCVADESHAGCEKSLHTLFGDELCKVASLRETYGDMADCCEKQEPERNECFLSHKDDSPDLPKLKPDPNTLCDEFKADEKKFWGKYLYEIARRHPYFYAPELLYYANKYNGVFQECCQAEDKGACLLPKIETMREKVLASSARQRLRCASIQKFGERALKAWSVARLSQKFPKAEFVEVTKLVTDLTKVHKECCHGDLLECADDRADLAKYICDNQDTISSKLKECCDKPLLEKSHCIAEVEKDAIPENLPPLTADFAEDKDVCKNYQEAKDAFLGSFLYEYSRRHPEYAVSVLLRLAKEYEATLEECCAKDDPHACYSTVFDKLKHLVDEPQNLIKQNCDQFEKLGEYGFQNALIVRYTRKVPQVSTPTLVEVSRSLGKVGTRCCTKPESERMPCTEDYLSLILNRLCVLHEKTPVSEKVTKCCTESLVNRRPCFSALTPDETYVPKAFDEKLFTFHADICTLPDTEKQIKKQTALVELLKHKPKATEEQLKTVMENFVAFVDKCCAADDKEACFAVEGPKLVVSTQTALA
UniProt P01215: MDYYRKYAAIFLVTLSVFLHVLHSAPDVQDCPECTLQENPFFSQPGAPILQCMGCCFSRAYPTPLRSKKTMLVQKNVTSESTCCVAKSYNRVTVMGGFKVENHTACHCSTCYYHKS

How the values were obtained:
[1] = target: T1, FITC-labeled hCG-specific binding peptide aptamer FITC-…; experiment: other fluorescence titration; 50 nM FITC-peptide first adsorbed on graphene oxide (2 ug/mL, 10 min, fluorescence quenched); protein added, 15 min at room temperature, PBS 20 mM pH 7.2; recovery of fluorescence (excitation 470 nm, emission 518 nm) on release of the peptide from GO; both purified
T1 sequence (peptide, fluorescein isothiocyanate (FITC) on the N-terminus): PPLRINRHILTR

[2] = target: T1, FITC-labeled hCG-specific binding peptide aptamer FITC-…; experiment: condition: serum sample with 16.14 mIU/mL FSH, 50 uL in 200 uL; other fluorescence titration; as a1, but the sample is centrifuged human serum: 50 uL supernatant + 50 uL PBS + 100 uL FITC-peptide/GO solution; only the target purified
[3] = target: T1, FITC-labeled hCG-specific binding peptide aptamer FITC-…; experiment: condition: serum sample with 11.82 mIU/mL LH, 50 uL in 200 uL; other fluorescence titration; as a1, but the sample is centrifuged human serum: 50 uL supernatant + 50 uL PBS + 100 uL FITC-peptide/GO solution; only the target purified
[4] = target: T1, FITC-labeled hCG-specific binding peptide aptamer FITC-…; experiment: condition: serum sample with 3.41 mIU/mL TSH, 50 uL in 200 uL; other fluorescence titration; as a1, but the sample is centrifuged human serum: 50 uL supernatant + 50 uL PBS + 100 uL FITC-peptide/GO solution; only the target purified

Beta-subunit of hCG (from UniProt P0DN86 21-165)
binding [1]: no binding (tested: 25 ng/mL)

Bovine serum albumin (from UniProt P02769 25-607)
binding [1]: no binding (tested: 10 ng/mL)

Follicle-stimulating hormone (from UniProt P01215 25-116; P01225 19-129) (complex)
binding [2]: no binding

Luteotropic hormone (from UniProt P01215 25-116; P01229 21-141) (complex)
binding [3]: no binding

Thyroid stimulating hormone (from UniProt P01215 25-116; P01222 21-132) (complex)
binding [4]: no binding
